{"source": "PubChem BioAssay AID1259308 (NCATS, 2017)", "aim": "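Genes whose loss raises luciferase production in HEK293 cells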 (primary screen)", "system": "human HEK293 embryonic kidney cells stably expressing firefly luciferase (HEK-CMV-Luc2-Hygro)", "reagent": "single siRNA against human genes, 0.8 pmol siRNA per well", "time to read-out": "72 h", "measurement": "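Reporter luminescence and viable-cell signal on separate replicate plates, given as percent of non-targeting control and median/MAD z-scores, plus per-cell luciferase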", "reading the numbers": "total luciferase, z-score: higher = more reporter protein produced", "active means": "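An siRNA counts as active if its total luciferase robust z-score exceeds 3; genes with two or more such siRNAs out of three were retested with fresh siRNAs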", "meaning of the calls": "active = raised luciferase; inactive = no rise", "note": "This is one part, drawn at random, of about 59,000 reagents tested. Of all reagents, about 1,510 (2.6%) got an active call. 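Calls use total luciferase alone and ignore viability, so some active siRNAs may act by altering cell number.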 Entries without a mark were called inactive. The numbers tell different reagents against one gene apart. Further read-outs or replicates are left out here. No sequences are given here."}
{"target gene": "RSRC1", "reagent": 1, "total luciferase, z-score": 0.171}
{"target gene": "RSRC1", "reagent": 2, "total luciferase, z-score": -1.21}
{"target gene": "RSRC1", "reagent": 3, "total luciferase, z-score": 0.017}
{"target gene": "EMC10", "reagent": 1, "total luciferase, z-score": -2.1}
{"target gene": "EMC10", "reagent": 2, "total luciferase, z-score": -0.56}
{"target gene": "EMC10", "reagent": 3, "total luciferase, z-score": -0.948}
{"target gene": "H4C7", "reagent": 1, "total luciferase, z-score": 1.84}
{"target gene": "H4C7", "reagent": 2, "total luciferase, z-score": 0.832}
{"target gene": "H4C7", "reagent": 3, "total luciferase, z-score": 0.756}
{"target gene": "CPSF4L", "reagent": 1, "total luciferase, z-score": 0.97}
{"target gene": "CPSF4L", "reagent": 2, "total luciferase, z-score": 1.75}
{"target gene": "CPSF4L", "reagent": 3, "total luciferase, z-score": 1.18}
{"target gene": "NSUN2", "reagent": 1, "total luciferase, z-score": -0.219}
{"target gene": "NSUN2", "reagent": 2, "total luciferase, z-score": -0.23}
{"target gene": "NSUN2", "reagent": 3, "total luciferase, z-score": 0.337}
{"target gene": "MRPS6", "reagent": 1, "total luciferase, z-score": -0.0755}
{"target gene": "MRPS6", "reagent": 2, "total luciferase, z-score": 0.298}
{"target gene": "MRPS6", "reagent": 3, "total luciferase, z-score": -0.946}
{"target gene": "SEZ6", "reagent": 1, "total luciferase, z-score": -3.27}
{"target gene": "SEZ6", "reagent": 2, "total luciferase, z-score": 0.105}
{"target gene": "SEZ6", "reagent": 3, "total luciferase, z-score": -0.155}
{"target gene": "CCDC62", "reagent": 1, "total luciferase, z-score": -0.671}
{"target gene": "CCDC62", "reagent": 2, "total luciferase, z-score": 0.0888}
{"target gene": "CCDC62", "reagent": 3, "total luciferase, z-score": 0.0199}
{"target gene": "FTCDNL1", "reagent": 1, "total luciferase, z-score": 0.579}
{"target gene": "FTCDNL1", "reagent": 2, "total luciferase, z-score": 0.0848}
{"target gene": "FTCDNL1", "reagent": 3, "total luciferase, z-score": -0.467}
{"target gene": "FRS2", "reagent": 1, "total luciferase, z-score": -0.675}
{"target gene": "FRS2", "reagent": 2, "total luciferase, z-score": 0.452}
{"target gene": "FRS2", "reagent": 3, "total luciferase, z-score": -0.179}
{"target gene": "ARID4B", "reagent": 1, "total luciferase, z-score": -1.09}
{"target gene": "ARID4B", "reagent": 2, "total luciferase, z-score": -1.33}
{"target gene": "ARID4B", "reagent": 3, "total luciferase, z-score": -1.11}
{"target gene": "NT5DC1", "reagent": 1, "total luciferase, z-score": -0.0941}
{"target gene": "NT5DC1", "reagent": 2, "total luciferase, z-score": 1.88}
{"target gene": "NT5DC1", "reagent": 3, "total luciferase, z-score": -0.221}
{"target gene": "QSOX1", "reagent": 1, "total luciferase, z-score": -1.35}
{"target gene": "QSOX1", "reagent": 2, "total luciferase, z-score": -1.8}
{"target gene": "QSOX1", "reagent": 3, "total luciferase, z-score": 0.655}
{"target gene": "PSG3", "reagent": 1, "total luciferase, z-score": 0.388}
{"target gene": "PSG3", "reagent": 2, "total luciferase, z-score": -0.264}
{"target gene": "PSG3", "reagent": 3, "total luciferase, z-score": -1.3}

No new results follow: entries from further up.
{"target gene": "H4C7", "reagent": 3, "total luciferase, z-score": 0.756}
{"target gene": "CPSF4L", "reagent": 1, "total luciferase, z-score": 0.97}
{"target gene": "CPSF4L", "reagent": 2, "total luciferase, z-score": 1.75}
{"target gene": "CPSF4L", "reagent": 3, "total luciferase, z-score": 1.18}
